Laboratory results published in publication PMC12297799.
Results are given in words; binding and its absence hold for the method and conditions named. Binding seen in cells or lysates may run through a third protein. Here binding means that the protein was enriched with, or labelled near, the bait; the list need not be complete.

T1: Tocopherol alpha transfer protein-like (TTPAL), bait of the CoIP-MS in HEK293T cells (human) (UniProt Q9BTX7)
T1 sequence: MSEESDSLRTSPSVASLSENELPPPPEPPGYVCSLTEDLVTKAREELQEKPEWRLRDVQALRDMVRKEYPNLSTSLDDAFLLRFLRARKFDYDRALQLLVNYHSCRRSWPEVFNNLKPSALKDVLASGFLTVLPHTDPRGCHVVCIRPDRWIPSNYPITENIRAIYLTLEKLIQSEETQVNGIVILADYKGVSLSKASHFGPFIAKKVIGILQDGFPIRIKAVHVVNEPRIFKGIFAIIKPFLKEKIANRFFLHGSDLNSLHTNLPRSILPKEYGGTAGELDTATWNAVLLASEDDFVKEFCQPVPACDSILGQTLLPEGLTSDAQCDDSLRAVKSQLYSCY


Biological target: T1, Tocopherol alpha transfer protein-like (TTPAL), bait of the CoIP-MS in HEK293T cells (human)
Test: affinity purification with mass spectrometry; coimmunoprecipitation of TTPAL from HEK293T cells coupled with mass spectrometry (CoIP-MS)

| Binder | binding |
| --- | --- |
| RBM15 (protein, UniProt Q96T37 1-977) MRTAGRDPVPRRSPRWRRAVPLCETSAGRRVTQLRGDDLRRPATMKGKERSPVKAKRSRGGEDSTSRGERSKKLGGSGGSNGSSSGKTDSGGGSRRSLHLDKSSSRGGSREYDTGGGSSSSRLHSYSSPSTKNSSGGGESRSSSRGGGGESRSSGAASSAPGGGDGAEYKTLKISELGSQLSDEAVEDGLFHEFKRFGDVSVKISHLSGSGSGDERVAFVNFRRPEDARAAKHARGRLVLYDRPLKIEAVYVSRRRSRSPLDKDTYPPSASVVGASVGGHRHPPGGGGGQRSLSPGGAALGYRDYRLQQLALGRLPPPPPPPLPRDLERERDYPFYERVRPAYSLEPRVGAGAGAAPFREVDEISPEDDQRANRTLFLGNLDITVTESDLRRAFDRFGVITEVDIKRPSRGQTSTYGFLKFENLDMSHRAKLAMSGKIIIRNPIKIGYGKATPTTRLWVGGLGPWVPLAALAREFDRFGTIRTIDYRKGDSWAYIQYESLDAAHAAWTHMRGFPLGGPDRRLRVDFADTEHRYQQQYLQPLPLTHYELVTDAFGHRAPDPLRGARDRTPPLLYRDRDRDLYPDSDWVPPPPPVRERSTRTAATSVPAYEPLDSLDRRRDGWSLDRDRGDRDLPSSRDQPRKRRLPEESGGRHLDRSPESDRPRKRHCAPSPDRSPELSSSRDRYNSDNDRSSRLLLERPSPIRDRRGSLEKSQGDKRDRKNSASAERDRKHRTTAPTEGKSPLKKEDRSDGSAPSTSTASSKLKSPSQKQDGGTAPVASASPKLCLAWQGMLLLKNSNFPSNMHLLQGDLQVASSLLVEGSTGGKVAQLKITQRLRLDQPKLDEVTRRIKVAGPNGYAILLAVPGSSDSRSSSSSAASDTATSTQRPLRNLVSYLKQKQAAGVISLPVGGNKDKENTGVLHAFPPCEFSQQFLDSPAKALAKSEEDYLVMIIVRGFGFQIGVRYENKKRENLALTLL | binds |
| RBM14 (protein, UniProt Q96PK6 1-669) MKIFVGNVDGADTTPEELAALFAPYGTVMSCAVMKQFAFVHMRENAGALRAIEALHGHELRPGRALVVEMSRPRPLNTWKIFVGNVSAACTSQELRSLFERRGRVIECDVVKDYAFVHMEKEADAKAAIAQLNGKEVKGKRINVELSTKGQKKGPGLAVQSGDKTKKPGAGDTAFPGTGGFSATFDYQQAFGNSTGGFDGQARQPTPPFFGRDRSPLRRSPPRASYVAPLTAQPATYRAQPSVSLGAAYRAQPSASLGVGYRTQPMTAQAASYRAQPSVSLGAPYRGQLASPSSQSAAASSLGPYGGAQPSASALSSYGGQAAAASSLNSYGAQGSSLASYGNQPSSYGAQAASSYGVRAAASSYNTQGAASSLGSYGAQAASYGAQSAASSLAYGAQAASYNAQPSASYNAQSAPYAAQQAASYSSQPAAYVAQPATAAAYASQPAAYAAQATTPMAGSYGAQPVVQTQLNSYGAQASMGLSGSYGAQSAAAATGSYGAAAAYGAQPSATLAAPYRTQSSASLAASYAAQQHPQAAASYRGQPGNAYDGAGQPSAAYLSMSQGAVANANSTPPPYERTRLSPPRASYDDPYKKAVAMSKRYGSDRRLAELSDYRRLSESQLSFRRSPTKSSLDYRRLPDAHSDYARYSGSYNDYLRAAQMHSGYQRRM | binds |
